{
  "source": "patent CN115536746A",
  "binders": {"B1": {"name": "HuC94-31 (antibody, V domains shown)", "VH": "EVQLLESGGGLVQPGGSLRLSCAASGFTFSTSAMSWVRQAPGKGLEWVATISSGGDYTYYSDNVKGRFTISRDNSKSTLYLQMNSLRAEDTAVYYCTLGYDEADYWGQGSLLTVSS", "VL": "DIQMTQSPSSLSASVGDRVTITCRASQDISNYLNWYQQKPGKAPKLLIYYTSRLHSGVPSRFSGSGSGTDYTFTISSLQPEDIATYYCQQGDTFPWTFGGGTKLEIK"}},
  "biological_target": "T1, 猴源CRTAM蛋白全长 on CHO-K1-cCRTAM cells (猴源 (食蟹猴, cynomolgus monkey))",
  "T1 sequence": "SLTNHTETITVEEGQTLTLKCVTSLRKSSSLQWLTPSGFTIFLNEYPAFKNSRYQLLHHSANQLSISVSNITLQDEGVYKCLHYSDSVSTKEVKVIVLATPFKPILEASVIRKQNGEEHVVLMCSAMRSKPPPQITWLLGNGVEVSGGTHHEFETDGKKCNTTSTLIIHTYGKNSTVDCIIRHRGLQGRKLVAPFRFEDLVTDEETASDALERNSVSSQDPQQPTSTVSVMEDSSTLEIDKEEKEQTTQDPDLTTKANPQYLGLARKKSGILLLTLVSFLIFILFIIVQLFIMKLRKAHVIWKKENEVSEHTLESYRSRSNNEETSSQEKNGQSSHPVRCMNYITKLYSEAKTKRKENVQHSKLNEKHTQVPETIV",
  "experiment": "flow cytometry on CHO-K1-cCRTAM cells",
  "note": "These are yes or no findings as the source states them, for the method shown. Some entries that bind do so weakly or less than the wild type.",
  "data": [
    {"binder": "B1", "values": [
      {"measurement": "binding", "value": "binds"}
    ]}
  ]
}
